From PubChem BioAssay AID540276 (National Center for Advancing Translational Sciences (NCATS), 2011)
The whole screen tested about 300,000 compounds, of which about 5,400 (1.8%) were called active. This list was built around the results that the source calls inconclusive (neither active nor inactive); the mix of calls is not that of the screen. The call rests on the fitted dose curve; tested in HEK293 cells. A potency beside an inconclusive call is a rough fit, not a confirmed value.

Experiment: qHTS for inhibitors of binding or entry into cells for Marburg Virus
Settings: Marburg virus pseudotyped entry inhibition, cell reporter; series mostly up to 37.8 µM
Potency means the concentration at half of the fitted maximal effect.

| Structure (SMILES) | Potency |
| --- | --- |
| CC(=O)c1cc2c(cc1N/C(=N/S(=O)(=O)c1ccc(Br)cc1)c1ccccc1)OCO2 | inconclusive: 10 µM [inhibitor, partial curve, poor fit] |
| O=C(CCc1ccccc1)Nc1ccc2ccccc2n1 | inconclusive: 10 µM [inhibitor, partial curve] |
| COC(=O)c1cc(C)[nH]c2c(C)cc3nc4ccccc4c3c12 | inconclusive: 35.5 µM [inhibitor, single point] |
| O=C(CSc1nc(Cc2ccccc2)nc2ccccc12)Nc1ccc2c(c1)OCCO2 | inconclusive: 2.06 µM [inhibitor, partial curve, poor fit] |
| C=CC1=C2C=C(C3CC3)N(CCN3CCOCC3)C=C2C(=O)C(C)(OC(=O)c2ccco2)C1=O (stereo not given) | inactive |
| CCOc1ccccc1NC(=O)Cn1c(=O)n(-c2cccc(C)c2)c(=O)c2c1c1cc(OC)ccc1n2C | inconclusive: 8.91 µM [activator, partial curve] |
| O=C(NCc1cccs1)c1ccc2ccccc2n1 | inactive |
| Cc1cc(C)nc(-n2ncc3c2CC(c2ccccc2)CC3=O)n1 (stereo not given) | inactive |
| CSc1cccc(CN2CCC(Oc3ccc(C(=O)N4CCCCC4)cc3)CC2)c1 | inconclusive: 6.31 µM [inhibitor, partial curve, poor fit] |
| CC(=O)N(CCCN(C)C)Cc1ccccn1 | inactive |
| CCCN(Cc1cc2cc(OC)ccc2[nH]c1=O)C(=O)c1ccncc1 | inconclusive: 22.4 µM [inhibitor, single point] |
| Cc1ccc(-c2ccc(NC(=O)C3C4C=CC(C4)C3C(=O)O)cc2)o1 (stereo not given) | inactive |
| CC(=O)c1ccc(/C=C/c2nc3ccccc3n2C)o1 | inconclusive: 2.24 µM [activator, partial curve, poor fit] |
| COc1cc2c(cc1NC(=O)COC(=O)/C=C/c1ccccc1)oc1ccccc12 | inconclusive: 35.5 µM [inhibitor, single point] |
| O=C(COc1ccccc1[N+](=O)[O-])N(Cc1ccco1)c1ccccn1 | inactive |
| COC(=O)c1ccc(-c2nc3ccccc3[nH]2)cc1 | active: 1.84 µM |
| COc1cc2c(=O)n(CCc3ccccc3)c(=O)n(CC(=O)Nc3ccccc3)c2cc1OC | inactive |
| COc1cc(C2CC(=O)Oc3c2c(=O)n(C)c2ccccc32)cc(OC)c1OC (stereo not given) | inconclusive: 0.58 µM [inhibitor, partial curve, poor fit] |
| CCc1ccc(OCC(=O)N/N=C(\C)c2ccc(O)cc2O)cc1 | inconclusive: 35.5 µM [inhibitor, single point] |
| OC(CC#CCN1CCCCC1)(c1ccccc1)c1ccccc1 | inconclusive: 15.8 µM [inhibitor, partial curve, poor fit] |

2 records picked at random from those above:

| Structure (SMILES) | Potency |
| --- | --- |
| Cc1ccc(-c2ccc(NC(=O)C3C4C=CC(C4)C3C(=O)O)cc2)o1 (stereo not given) | inactive |
| COC(=O)c1cc(C)[nH]c2c(C)cc3nc4ccccc4c3c12 | inconclusive: 35.5 µM [inhibitor, single point] |
